These results are taken from article PMC11845518.

Amino acid sequences for entries named in this document (tags omitted).
UniProt Q13557: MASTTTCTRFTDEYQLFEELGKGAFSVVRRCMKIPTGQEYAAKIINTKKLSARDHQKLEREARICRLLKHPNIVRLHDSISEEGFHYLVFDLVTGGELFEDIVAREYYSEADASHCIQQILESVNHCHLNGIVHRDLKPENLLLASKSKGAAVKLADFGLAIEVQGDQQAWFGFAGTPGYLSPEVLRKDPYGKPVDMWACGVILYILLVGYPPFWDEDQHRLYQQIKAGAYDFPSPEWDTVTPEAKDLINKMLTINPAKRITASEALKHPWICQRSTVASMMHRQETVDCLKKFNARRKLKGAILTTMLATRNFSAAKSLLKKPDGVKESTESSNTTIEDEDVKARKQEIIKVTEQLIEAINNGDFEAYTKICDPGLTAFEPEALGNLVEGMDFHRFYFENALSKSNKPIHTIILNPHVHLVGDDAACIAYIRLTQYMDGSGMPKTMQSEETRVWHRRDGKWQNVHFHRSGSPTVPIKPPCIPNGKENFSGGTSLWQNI

Assay [1] addresses T1, PEAK2 L955A (UniProt Q86YV5).
T1 sequence: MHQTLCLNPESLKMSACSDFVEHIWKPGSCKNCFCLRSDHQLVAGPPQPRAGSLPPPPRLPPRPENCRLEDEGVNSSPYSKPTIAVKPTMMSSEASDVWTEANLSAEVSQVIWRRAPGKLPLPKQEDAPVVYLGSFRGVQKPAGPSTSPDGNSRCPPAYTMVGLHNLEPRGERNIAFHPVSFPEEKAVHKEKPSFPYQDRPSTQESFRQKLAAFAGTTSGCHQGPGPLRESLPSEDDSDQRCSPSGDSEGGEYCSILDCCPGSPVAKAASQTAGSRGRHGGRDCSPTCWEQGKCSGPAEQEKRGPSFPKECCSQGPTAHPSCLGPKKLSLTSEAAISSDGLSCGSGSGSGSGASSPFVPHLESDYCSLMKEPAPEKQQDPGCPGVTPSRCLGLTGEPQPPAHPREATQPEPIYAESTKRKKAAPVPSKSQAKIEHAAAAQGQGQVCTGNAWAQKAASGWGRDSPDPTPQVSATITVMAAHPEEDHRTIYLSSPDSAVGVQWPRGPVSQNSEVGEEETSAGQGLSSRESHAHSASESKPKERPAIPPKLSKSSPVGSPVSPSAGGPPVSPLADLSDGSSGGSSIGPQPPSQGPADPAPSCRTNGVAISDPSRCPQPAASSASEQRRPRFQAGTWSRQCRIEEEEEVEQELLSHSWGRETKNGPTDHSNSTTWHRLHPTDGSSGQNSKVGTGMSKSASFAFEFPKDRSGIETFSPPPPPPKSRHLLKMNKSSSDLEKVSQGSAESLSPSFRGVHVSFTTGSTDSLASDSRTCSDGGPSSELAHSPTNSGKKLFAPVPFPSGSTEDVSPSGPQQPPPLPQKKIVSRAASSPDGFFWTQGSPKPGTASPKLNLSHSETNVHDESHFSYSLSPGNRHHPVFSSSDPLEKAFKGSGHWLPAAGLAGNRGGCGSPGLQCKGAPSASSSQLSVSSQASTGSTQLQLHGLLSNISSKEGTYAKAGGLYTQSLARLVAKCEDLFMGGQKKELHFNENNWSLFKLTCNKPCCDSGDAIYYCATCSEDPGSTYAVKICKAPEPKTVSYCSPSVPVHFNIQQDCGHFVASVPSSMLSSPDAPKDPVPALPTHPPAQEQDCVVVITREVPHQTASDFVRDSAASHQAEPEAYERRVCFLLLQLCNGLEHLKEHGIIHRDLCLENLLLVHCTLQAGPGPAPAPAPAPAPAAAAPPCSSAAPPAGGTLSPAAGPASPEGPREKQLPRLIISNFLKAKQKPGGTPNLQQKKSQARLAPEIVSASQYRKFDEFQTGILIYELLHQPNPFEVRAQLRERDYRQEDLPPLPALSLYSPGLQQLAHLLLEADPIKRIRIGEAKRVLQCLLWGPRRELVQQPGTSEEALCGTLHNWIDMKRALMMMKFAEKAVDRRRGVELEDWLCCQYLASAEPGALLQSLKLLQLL
Nature of the assay: co-IP; association of PEAK2 and its mutants with CAMK2D (Supplementary Fig. 4); cells and details not shown; also with PEAK1 knockdown.

The target of assay [2] is T2, PEAK2 L966A (UniProt Q86YV5).
T2 sequence: T1 sequence with A955L, L966A
Described as above.

Substitutions are numbered along the chain they refer to. No constants are given. Whether binding was seen depends on the method and setting. Binding seen in cells or lysates may run through a third protein. Some entries that bind do so weakly or less than the wild type.

For “CAMK2D (partner of PEAK2 in Supplementary Fig. 4) (from UniProt Q13557 1-499) (enzyme)”, the binding result in assay [1] and in assay [2] was “binds” each time.
